# In the supplement of paper PMC8728848:
# This is one part of the list.
# B1: LlpA1 (Pseudomonas fluorescens), Q4KHC3 (protein)
# chain: MGSSHHHHHHSSGLVPRGSHMAWIRYDFTDNGSSVLPARYYMAPNQYLQSPNKRFKLLFQADGNLALYDGAQLAWVADQNTPFTNVSKGNKKDPMMVFMNYGFVLDDPLRGRIWSTTPSDPTMGSREDASLRAFTQVQDDGNIVTVDTIPHWYAPNGRVFTPAVGAAMIIGGTTELVPGQFYSAGEHSLVFQGDGNLVVYGPNSSVIWATYTQNKGGVRCVMQEDGNLVIYAANNGVVWQSGTGGHPGATIRLQANGSFTIVTERPVWARFGYTPTIKPPRVFYPDHKWKTGSYTWNNVF
# Key:
# Assay in all cases: glycan array binding signal (z-score within array); higher = stronger binding
# Conditions in all cases: glycan notation: IUPAC condensed, linker removed
# [1] = target: Neu5Ac(a2-8)Neu5Ac(a2-3)Gal(b1-4)GlcNAc
# Procedure, shortened: (§1)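 Glycan array binding is given as a within-array Z-score, which can be read as non-binding when negative. The arrays, 3228 of them, came from the Consortium for Functional Glycomics database and were retained only where the protein sequence was available. Z-scores were averaged across arrays of the same protein sequence at different concentrations or buffers and across linkers.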
# [2] = target: Neu5Ac(a2-8)Neu5Ac(a2-3)[Gal(b1-3)GalNAc(b1-4)]Gal(b1-4)Glc
# Procedure, shortened: as §1
# [3] = target: Neu5Ac(a2-8)Neu5Ac(a2-3)[GalNAc(b1-4)]Gal(b1-4)Glc
# Procedure, shortened: as §1
# [4] = target: Neu5Ac(a2-8)Neu5Ac(a2-8)Neu5Ac
# Procedure, shortened: as §1
# [5] = target: Neu5Ac(a2-8)Neu5Ac(a2-8)Neu5Ac(a2-3)Gal(b1-4)Glc
# Procedure, shortened: as §1
# [6] = target: Neu5Ac(a2-8)Neu5Ac(a2-8)Neu5Ac(a2-3)[Gal(b1-3)GalNAc(b1-4)]Gal(b1-4)Glc
# Procedure, shortened: as §1
# [7] = target: Neu5Ac(a2-8)Neu5Ac(a2-8)Neu5Ac(a2-3)[GalNAc(b1-4)]Gal(b1-4)Glc
# Procedure, shortened: as §1
# [8] = target: Neu5Ac(a2-8)Neu5Ac(a2-8)Neu5Ac(a2-8)Neu5Ac(a2-3)[GalNAc(b1-4)]Gal(b1-4)Glc
# Procedure, shortened: as §1
# [9] = target: Neu5Ac(a2-8)Neu5Gc(a2-3)Gal(b1-4)GlcNAc
# Procedure, shortened: as §1
# [10] = target: Neu5Ac(b2-6)Gal(b1-4)GlcNAc
# Procedure, shortened: as §1
# Neu5Ac(b2-6)GalNAc = target: Neu5Ac(b2-6)GalNAc
# Procedure, shortened: as §1
# [11] = target: Neu5Ac9Ac(a2-3)Gal(b1-3)GlcNAc
# Procedure, shortened: as §1
# [12] = target: Neu5Ac9Ac(a2-3)Gal(b1-4)GlcNAc
# Procedure, shortened: as §1
# [13] = target: Neu5Ac9Ac(a2-6)Gal(b1-4)GlcNAc
# Procedure, shortened: as §1
# [14] = target: Neu5Gc(a2-3)Gal(b1-3)GlcNAc
# Procedure, shortened: as §1
# [15] = target: Neu5Gc(a2-3)Gal(b1-3)[Fuc(a1-4)]GlcNAc
# Procedure, shortened: as §1
# Neu5Gc(a2-3)Gal(b1-4)Glc = target: Neu5Gc(a2-3)Gal(b1-4)Glc
# Procedure, shortened: as §1
# [16] = target: Neu5Gc(a2-3)Gal(b1-4)GlcNAc
# Procedure, shortened: as §1
# [17] = target: Neu5Gc(a2-3)Gal(b1-4)GlcNAc(b1-3)Gal(b1-4)GlcNAc(b1-2)Man(a1-3)[Neu5Gc(a2-3)Gal(b1-4)GlcNAc(b1-3)Gal(b1-4)GlcNAc(b1-2)Man(a1-6)]Man(b1-4)GlcNAc(b1-4)GlcNAc
# Procedure, shortened: as §1
# [18] = target: Neu5Gc(a2-3)Gal(b1-4)[Fuc(a1-3)]GlcNAc
# Procedure, shortened: as §1
# [19] = target: Neu5Gc(a2-6)Gal(b1-4)GlcNAc
# Procedure, shortened: as §1
# Neu5Gc(a2-6)GalNAc = target: Neu5Gc(a2-6)GalNAc
# Procedure, shortened: as §1
# [20] = target: Neu5Gc(a2-8)Neu5Ac(a2-3)Gal(b1-4)GlcNAc
# Procedure, shortened: as §1
# [21] = target: Neu5Gc(a2-8)Neu5Gc(a2-3)Gal(b1-4)GlcNAc
# Procedure, shortened: as §1
# [22] = target: Neu5Gc(a2-8)Neu5Gc(a2-3)Gal(b1-4)GlcNAc(b1-3)Gal(b1-4)GlcNAc
# Procedure, shortened: as §1
# [23] = target: Neu5Gc(a2-8)Neu5Gc(a2-6)Gal(b1-4)GlcNAc
# Procedure, shortened: as §1
# [24] = target: Neu5Gc(b2-6)Gal(b1-4)GlcNAc
# Procedure, shortened: as §1
binder,measurement,setting,value
B1,glycan array binding signal (z-score),[1],-0.552
same,glycan array binding signal (z-score),[2],-0.148
same,glycan array binding signal (z-score),[3],-0.414
same,glycan array binding signal (z-score),[4],-0.363
same,glycan array binding signal (z-score),[5],-0.122
same,glycan array binding signal (z-score),[6],0.473
same,glycan array binding signal (z-score),[7],-0.21
same,glycan array binding signal (z-score),[8],0.121
same,glycan array binding signal (z-score),[9],8.89
same,glycan array binding signal (z-score),[10],-0.022
same,glycan array binding signal (z-score),Neu5Ac(b2-6)GalNAc,-0.764
same,glycan array binding signal (z-score),[11],-0.223
same,glycan array binding signal (z-score),[12],-0.488
same,glycan array binding signal (z-score),[13],-0.615
same,glycan array binding signal (z-score),[14],-0.477
same,glycan array binding signal (z-score),[15],-0.218
same,glycan array binding signal (z-score),Neu5Gc(a2-3)Gal(b1-4)Glc,-0.626
same,glycan array binding signal (z-score),[16],-0.809
same,glycan array binding signal (z-score),[17],-0.474
same,glycan array binding signal (z-score),[18],-0.843
same,glycan array binding signal (z-score),[19],-0.079
same,glycan array binding signal (z-score),Neu5Gc(a2-6)GalNAc,-0.102
same,glycan array binding signal (z-score),[20],-0.61
same,glycan array binding signal (z-score),[21],-0.474
same,glycan array binding signal (z-score),[22],0.305
same,glycan array binding signal (z-score),[23],-0.546
same,glycan array binding signal (z-score),[24],-0.167

# 2 neighbouring records from above:
binder,measurement,setting,value
B1,glycan array binding signal (z-score),[3],-0.414
same,glycan array binding signal (z-score),[4],-0.363
